# Assay results

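Uptake of anthrax lethal toxin into cultured cells, read by FRET (460/530 nm ratio) and reported from the 460 nm channel; the cell line is not named here. Each compound was tested as a concentration series from about 0.0005 to 40 µM. The number is the fitted AC50 of the 460 nm signal alone; lower values mean a more potent effect. A falling signal goes with compounds filed as inhibitors or cytotoxic, a rising one with activators or fluorescent compounds (inferred from the filed classes).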

Values are in µM. Common to all entries: measured here: 460 nm channel. Part of the compounds only, not a random draw; the main read-out is not listed here. Potencies fitted to partial, single-point or poorly fitting curves are rough. The first word of each remark tells which way the curve ran; it can be opposite to the aim of the assay.

* CCCOc1ccc2[nH]cc(C3=CCNCC3)c2n1 : AC50 12.59 µM (falling, partial curve)
* CC(C)(C)c1cc(C(c2cccnc2)N2CCN(CCO)CC2)cc(C(C)(C)C)c1O (configuration not stated) : AC50 7.943 µM (falling, partial curve)
* CCOP(=O)(c1c(F)c(F)c(F)c(F)c1F)C1(O)CCCCC1 (configuration not stated) : AC50 12.59 µM (rising, single point)
* COC(=O)c1ccc(OCC(O)Cn2nnc3ccccc32)cc1 (configuration not stated) : AC50 0.3981 µM (falling, full curve)
* CCOC(=O)C(C)n1cnc2c(oc3ccccc32)c1=O (configuration not stated) : AC50 0.0631 µM (rising, full curve, poor fit)
* COc1ccc(-c2nc3cnc(N4CCNCC4)nc3n(Cc3ccc(F)cc3)c2=O)cc1 : AC50 10 µM (rising, partial curve)
* COc1ccc(-c2ccc(Nc3ccc(S(=O)(=O)N4CCCC4)cc3)nn2)cc1OC : AC50 10 µM (falling, partial curve)
* Cc1ccn2c(-c3csc(NCc4ccco4)n3)c(C)nc2c1 : AC50 19.95 µM (rising, partial curve)
* C=CCC1(C)OC=Cc2nc3cc(Cl)c(Cl)cc3nc21 (configuration not stated) : AC50 3.162 µM (falling, single point)
* CCc1ccc2oc(-c3cc(N)ccc3O)nc2c1 : AC50 7.943 µM (rising, partial curve)
* O=C(O)c1cc(S(=O)(=O)N2CCCCCC2)c(Cl)cc1Cl : AC50 10 µM (rising, single point)
* COC(=O)C1=CN(CC2CCCO2)C=C(C(=O)OC)C1c1cc(OC)c(OC)c(OC)c1 (configuration not stated) : AC50 10 µM (rising, partial curve)
* Cc1c(C(=O)Nc2cccc(C(F)(F)F)c2)oc2ccc(S(=O)(=O)N3CCOCC3)cc12 : AC50 0.07943 µM (falling, full curve, poor fit)
* CCCNC(=O)c1c(N)n(Cc2ccc3c(c2)OCO3)c2nc3ccccc3nc12 : AC50 2.512 µM (rising, partial curve)
* O=c1cc(Nc2ccc3c(c2)OCCO3)[nH]c(=O)n1-c1ccc(Cl)cc1 : AC50 19.95 µM (falling, single point)
* N#Cc1ccc(CSc2nnc(NC(=O)CN3C(=O)C4CC=CCC4C3=O)s2)cc1 (configuration not stated) : AC50 15.85 µM (rising, partial curve)
* Cc1c(-c2ccc(F)cc2)nc(N)c(C#N)c1-c1ccco1 : AC50 6.31 µM (rising, partial curve)
* O=C(Nc1ccc(NC(=O)c2cccs2)cn1)c1ccco1 : AC50 12.59 µM (falling, partial curve)
* O=C(NCCCC(=O)N1CCOCC1)c1cccnc1 : AC50 0.003981 µM (falling, full curve, poor fit)
* C=C(C)COc1ccc(-c2nc(N)ncc2-c2ccc(OC)cc2)c(O)c1 : AC50 31.62 µM (falling, partial curve)
* COc1cccc(Cn2c(=O)c(-c3ccc(F)c(F)c3)nc3cncnc32)c1 : AC50 12.59 µM (rising, single point)
* Cc1cc(N2CCCC2)nc(-c2ccccc2O)n1 : AC50 5.012 µM (falling, partial curve, poor fit)
* COc1ccc2[nH]cc(CCNc3nc(-c4ccccc4CN(C)C)nc4ccccc34)c2c1 : AC50 19.95 µM (falling, single point)
* O=S1(=O)CCN2C(c3ccc4c(c3)CCCC4)=CSC2=N1 : AC50 0.1 µM (rising, partial curve, poor fit)
* CCCCCCCCCCCCCCCCCC(=O)O[C@H](CC(=O)O)C[N+](C)(C)C : AC50 12.59 µM (falling, single point)
* CCOC(=O)N1CCN(C(=O)C2CCCN(S(=O)(=O)c3cc(C)ccc3OC)C2)CC1 (configuration not stated) : AC50 5.012 µM (falling, single point)
* CCN(CC)CCCC(C)n1c(-c2ccccc2)nc2c(NCc3ccccc3)nc(C)nc21 (configuration not stated) : AC50 3.981 µM (falling, partial curve)
* CC1CCN(c2oc(-c3ccccc3F)nc2C#N)CC1 : AC50 10 µM (falling, partial curve)
* CC1CCN(C(=O)Cn2c(=O)n(Cc3ccc4c(c3)OCO4)c(=O)c3ccccc32)CC1 : AC50 10 µM (rising, partial curve)
* CC1(C)Cc2c(sc3c2c2ncnn2c2nnc(SCC(=O)NCc4ccco4)n32)CO1 : AC50 3.981 µM (rising, full curve, poor fit)
* Cc1nn(-c2ccccc2)c2[nH]c(=O)c(CNc3ccc(N4CCOCC4)cc3)cc12 : AC50 3.162 µM (rising, full curve)
* COc1cc2ncnc(Nc3cccc(Cl)c3)c2cc1OC : AC50 15.85 µM (falling, partial curve)
* CC(C)CN(C(=O)CSc1nnc2c(Cl)cc(C(F)(F)F)cn12)C1CCS(=O)(=O)C1 (configuration not stated) : AC50 0.03981 µM (rising, full curve, poor fit)

Repeated from the top, 4 entries:

structure	AC50 (µM)	curve as filed
CCCOc1ccc2[nH]cc(C3=CCNCC3)c2n1	12.59	falling, partial curve
CC(C)(C)c1cc(C(c2cccnc2)N2CCN(CCO)CC2)cc(C(C)(C)C)c1O (configuration not stated)	7.943	falling, partial curve
CCOP(=O)(c1c(F)c(F)c(F)c(F)c1F)C1(O)CCCCC1 (configuration not stated)	12.59	rising, single point
COC(=O)c1ccc(OCC(O)Cn2nnc3ccccc32)cc1 (configuration not stated)	0.3981	falling, full curve

Source: PubChem BioAssay AID912 (NCATS, 2007).